Values of other authors, collected in US11541105B2, “Compositions and methods for disrupting biofilm formation and maintenance” (The Research Foundation for the State University of new York, priority 2018, dated 2023).
At least one structure is not confirmed: it was looked up by name or label, or the drawing left a doubt.

Legend:
P. aeruginosa biofilms = conditions: wild type PA14 biofilms, diluted LB, 1 mM pyruvate; cited from earlier work
P. aeruginosa = conditions: cited from earlier work

CC(=O)C(=O)O [pyruvate]
increase in average diameter of microcolonies (P. aeruginosa biofilms): 1.6 fold | planktonic growth under fully aerated conditions (P. aeruginosa; 1 mM pyruvate): did not enhance growth | growth with pyruvate as the sole carbon source (P. aeruginosa; 25 mM pyruvate): supported some growth
